Experimental data published in PubChem BioAssay AID504467 (National Center for Advancing Translational Sciences (NCATS), 2011).
The whole screen tested about 330,000 compounds, of which about 7,700 (2.3%) were called active. This list was built around the results that the source calls inconclusive (neither active nor inactive); the mix of calls is not that of the screen. The call rests on the fitted dose curve; in most records, active means well fitted inhibition curve with a large enough effect; inconclusive means small, poorly fitted or top-dose-only effect, or effect the other way; inactive means flat fitted curve, though single readings scatter. A potency beside an inconclusive call is a rough fit, not a confirmed value.

experiment: qHTS screen for small molecules that inhibit ELG1-dependent DNA repair in human embryonic kidney (HEK293T) cells expressing luciferase-tagged ELG1; settings: HEK293T ELG1-luciferase reporter, luminescence, 16 h, DNA damage induced by 5-fluorouridine; activity change, negative = inhibition: at 46.1 µM (top of the series); further: nearly all actives have a fitted effect of over 55% in size
How it was run: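 Reporter activity after DNA damage by 5-fluorouridine is monitored. Compound-treated cells incubate 16 hr at 37 °C, then ONE-Glo is added for 30 min before luminescence reading.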
On the % scale 0 is the no-effect control and ±100 the full control effect; potency means the concentration at half of the fitted maximal effect.

| SMILES | Potency | activity change, negative = inhibition |
| --- | --- | --- |
| COc1ccc(-c2sc3cc(OC)c(OC)cc3c2C#CC2(O)CCCCC2)cc1 | inconclusive: 14.6 µM [inhibitor, partial curve] |  |
| COCC(=O)N(CCN(C)C)Cc1cc2cc3c(cc2nc1Cl)OCO3 | inconclusive: 20.6 µM [activator, partial curve, poor fit] |  |
| COc1ccc2c(c1)C(=O)c1ccccc1CO2 | inconclusive: 11.6 µM [activator, partial curve] |  |
| CCN(C(=O)CSc1cccc[n+]1[O-])C1CCCCC1 | inconclusive: 29.1 µM [activator, single point] |  |
| Cc1cc(C)n(CCCC(=O)O)n1 | inactive |  |
| COc1ccc(NC(=O)/C=C/c2ccccc2)c([N+](=O)[O-])c1 | inconclusive: 5.17 µM [activator, partial curve] |  |
| c1cc(-c2cccs2)nc(-c2cccs2)c1 | inconclusive: 20.6 µM [activator, single point] |  |
| CC1CCN(C2=NN3C(=N)/C(=C\c4ccc(OC(=O)c5ccco5)cc4)C(=O)N=C3S2)CC1 | inconclusive: 23.1 µM [activator, partial curve, poor fit] |  |
| O=C(NCc1ccccc1)NC1(C(=O)Nc2ccc3c(c2)OCCO3)CCCCC1 | inconclusive: 16.4 µM [activator, single point] |  |
| COc1ccc(NC(=O)Cn2nnc(-c3ccc(CN4CCOCC4)cc3)n2)c(OC)c1 | inactive |  |
| Cc1cc(C(=O)CSc2nnc(-c3cccs3)o2)c(C)n1-c1ccccc1 | inconclusive: 0.58 µM [activator, single point] |  |
| Cc1ccc(C)n1-c1ccc(C(=O)Nc2ccccc2F)cc1 | inconclusive: 29.1 µM [activator, single point] |  |
| O=C(/C=C/c1ccco1)Nc1sc2c(c1C(=O)O)CCC2 | inconclusive: 5.8 µM [activator, single point] |  |
| CCOC(=O)C1CCCN(c2cc(C)nc3cc(-c4ccc(Cl)cc4)nn23)C1 (configuration not stated) | active: 25.9 µM |  |
| CC(=O)Nc1ccc(NC(=O)C(C)OC(=O)/C(C#N)=C/c2ccc(N(C)C)cc2)cc1 (configuration not stated) | inconclusive: 9.2 µM [activator, partial curve] |  |
| Cc1ccc(N2CC(C(=O)N3CCCCC3)CC2=O)cc1C (configuration not stated) | inactive |  |
| Cc1[nH]c2ccccc2c1CCN(Cc1cccnc1)C(=S)Nc1cccc(F)c1 | inconclusive: 29.1 µM [inhibitor, single point] |  |
| CCOc1ccccc1-c1nc(-c2ccc(NC(=O)c3ccc(Br)o3)cc2)no1 | inconclusive: 25.9 µM [inhibitor, single point] |  |
| COC1(OC)C(=N/O)/C(=N\O)CCC1O (configuration not stated) | inactive |  |
| Cc1nn(CCc2n[nH]c(=S)n2C)c(C)c1Br | inactive |  |
| CC(CC(=O)NCCc1ccc(F)cc1)c1ccccc1 (configuration not stated) | inconclusive: 29.1 µM [activator, single point] |  |
| O=C(Nc1cccc(-c2nc3ccccc3o2)c1)c1ccc(N2C(=O)C3C4C=CC(C4)C3C2=O)cc1 (configuration not stated) | active: 16.4 µM |  |
| O=C(CCNC(=O)C1CCN(S(=O)(=O)c2ccccc2)CC1)NCCc1cccc(F)c1 | inactive |  |
| COc1ccc(/C=C/C(=O)Oc2ccc(C)c(C)c2)cc1OC | inactive |  |

| SMILES | Potency | activity change, negative = inhibition |
| --- | --- | --- |
| Cc1ccc(CN2CCN(/N=C/c3ccc(N(C)C)cc3)CC2)cc1 | inconclusive: 23.1 µM [inhibitor, partial curve, poor fit] |  |
| O=C1CC(c2ccccc2)=Nc2ccccc2N1 | inconclusive: 13 µM [activator, partial curve, poor fit] |  |
| Cc1cc(N=Cc2c(O)n(-c3ccc(C)c(C)c3)c(=O)c3ccccc23)no1 | inconclusive: 20.6 µM [inhibitor, partial curve] |  |
| Cc1cc(C)c(C(=O)CSc2nnc(C)s2)c(C)c1 | inconclusive: 25.9 µM [inhibitor, partial curve, poor fit] |  |
| COc1cc(NC(=O)CSc2nc3ccccc3c(=O)n2C)ccc1NC(=O)c1ccco1 | inconclusive: 10 µM [activator, single point] |  |
| COc1ccc(/C=C/C(=O)NCCc2nc3ccccc3[nH]2)cc1 | inconclusive: 0.0046 µM [inhibitor, full curve, poor fit] |  |
| Nc1ccc(-c2nc3c(Cl)cc(N)cc3[nH]2)cc1 | inactive |  |
| Cc1cc(OCC(=O)NCCc2c[nH]c3ccccc23)c2c(C)cc(=O)oc2c1 | inconclusive: 29.1 µM [inhibitor, single point] |  |
| CC(C)Cc1ccc(/C=C/C(=O)N2CCCCC2)cc1 | inconclusive: 11.6 µM [activator, partial curve] |  |
| Cc1ccccc1Nc1c(C)c(C)nc2ncnn12 | inconclusive: 15.8 µM [inhibitor, partial curve, poor fit] |  |
| O=c1[nH]c(CN2CCN(S(=O)(=O)c3ccc4c(c3)OCCO4)CC2)nc2sc3c(c12)CCCC3 | inconclusive: 2.59 µM [inhibitor, full curve] |  |
| COCCOC(=O)c1c(C)oc2ccc(OC(=O)c3ccc4c(c3)OCO4)cc12 | inactive |  |
| COc1cccc(CNc2ncnc3cc(OC)c(OC)cc23)c1 | inconclusive: 16.4 µM [inhibitor, single point] |  |
| COc1ccc(C(=O)C2CCCN(Cc3cccc4c3OCO4)C2)cc1OC (configuration not stated) | inactive |  |
| CN(C)CCCN(C(=O)c1ccc(S(=O)(=O)N(C)C2CCCCC2)cc1)c1nc2ccc(Br)cc2s1 | inactive |  |
| CC(C)NC(=O)c1ccc2c(c1)S(=O)(=O)c1ccccc1C2=O | inactive |  |
| COc1ccccc1CN1C[C@@H]2C[C@@H](c3[nH]c4c(C)cccc4c3C)N3CCC[C@@]23C1=O | inconclusive: 25.9 µM [inhibitor, partial curve, poor fit] |  |
| COC(=O)c1ccc(NC(=O)Nc2cccc(F)c2)cc1 | inconclusive: 2.31 µM [activator, partial curve] |  |
| O=c1oc2ccccc2c(O)c1C=NCc1ccccn1 | inactive |  |
| O=C(COc1ccccc1[N+](=O)[O-])N1CCCc2ccccc21 | inconclusive: 16.4 µM [inhibitor, partial curve, poor fit] |  |
| Cc1cc(C)c(C(=O)/C=C/c2cccc3ccccc23)c(=O)[nH]1 | active: 14.6 µM |  |
| C/C(=N\Nc1ccc(C(=O)c2c(C)cc3ccccn23)cc1[N+](=O)[O-])c1ccc(O)cc1 | inconclusive: 18.3 µM [inhibitor, partial curve] |  |
| O=C(O)C1CCN(C(=O)COc2ccc3c4c(c(=O)oc3c2)CCCC4)CC1 | inconclusive: 0.259 µM [inhibitor, single point] |  |
| CCN(CC(=O)NCc1ccc(F)cc1)Cc1cc(=O)n2ccsc2n1 | inactive |  |

| SMILES | Potency | activity change, negative = inhibition |
| --- | --- | --- |
| CCOC(=O)c1c(CN2CCN(c3ccccc3)CC2)oc2cc(Br)c(O)cc12 | inactive |  |
| CCN(CC)S(=O)(=O)c1ccc(OC)c(NC(=O)c2ccc([N+](=O)[O-])cc2)c1 | inactive |  |
| COCCN=c1scc(-c2cc(OC)c(OC)c(OC)c2)n1/N=C/c1c(C)[nH]c2ccccc12 | active: 7.31 µM |  |
| Cc1ccc(N2CC(C(=O)Nc3ccc(S(=O)(=O)Nc4nccc(C)n4)cc3)CC2=O)cc1 (configuration not stated) | inactive |  |
| O=C(O)c1cccc(N2C(=O)C3CC=CCC3C2=O)c1 (configuration not stated) | inactive |  |
| COC(=O)c1c(N)nc(C)n1-c1ccc(OC)cc1 | inactive |  |
| Cn1cc(C(=O)N2CCCCC2)c(=O)c2cc(S(=O)(=O)N3CCCC3)ccc21 | inconclusive: 25.9 µM [activator, partial curve, poor fit] |  |
| CCN1CCN(S(=O)(=O)c2ccc(Cl)c(C(=O)Nc3cc(Cl)ccc3N3CCOCC3)c2)CC1 | inactive |  |
| CC(Oc1ccc(-n2cnnn2)cc1)C(=O)O (configuration not stated) | inactive |  |
| CC(=O)c1ccc(NC(=O)C2(c3ccccc3)CC2(Cl)Cl)cc1 (configuration not stated) | inconclusive: 13 µM [activator, partial curve] |  |
| O=C(CSc1nc2ccccc2o1)N1c2ccccc2Sc2ccc(C(F)(F)F)cc21 | inactive |  |
| Cc1ccc(C(=O)CSc2cc(C)nc(SCC(=O)c3ccccc3)n2)cc1 | inconclusive: 18.4 µM [inhibitor, single point] |  |
| Cc1cc(C(=O)CSc2nc(N)cc(N)n2)c(C)n1-c1cccc(C(F)(F)F)c1 | inactive |  |
| CN(Cc1ccccc1)C(=O)COC(=O)C1CCN(S(=O)(=O)c2ccc(Cl)c(C(F)(F)F)c2)CC1 | inactive |  |
| O=C(Oc1ccc2c(c1)OCO2)c1ccc(F)cc1Cl | inconclusive: 23.1 µM [activator, partial curve] |  |
| O=C1NC(=O)c2cc(NC(=O)C3CCCO3)ccc21 (configuration not stated) |  | inconclusive: 29.2% [activator] |
| O=C(NCc1cccnc1)C1COc2ccccc2O1 (configuration not stated) | inactive |  |
| Cc1[nH]c2ccccc2c1C(C#N)(C#N)C1C(=O)c2ccccc2C1=O | inconclusive: 18.3 µM [inhibitor, single point] |  |
| [O-]/[N+](=C\c1ccc(OC(F)F)cc1)c1ccccc1 | inconclusive: 2.31 µM [activator, full curve, poor fit] |  |
| CCCCn1c(SCC(=O)N2CCC(C)CC2)nc2ccsc2c1=O | inconclusive: 25.9 µM [inhibitor, partial curve, poor fit] |  |
| CCc1ccc(Oc2ncnc(N)c2[N+](=O)[O-])cc1 | inactive |  |
| CC(C)NC(=O)CSc1nc(-c2ccccc2)cs1 | inconclusive: 16.4 µM [activator, partial curve] |  |
| Cc1ccc(C(C)C)c(OCC(=O)OCC(=O)NC2CC2)c1 | inconclusive: 29.1 µM [activator, partial curve, poor fit] |  |
| CC(C)N(Cc1nc(-c2ccc(Cl)cc2)no1)C(=O)c1cccs1 | inconclusive: 23.1 µM [inhibitor, partial curve, poor fit] |  |

4 compounds out of the list, ordered by length of the SMILES, rising.

| SMILES | Potency | activity change, negative = inhibition |
| --- | --- | --- |
| CCCCn1c(SCC(=O)N2CCC(C)CC2)nc2ccsc2c1=O | inconclusive: 25.9 µM [inhibitor, partial curve, poor fit] |  |
| CCOC(=O)c1c(CN2CCN(c3ccccc3)CC2)oc2cc(Br)c(O)cc12 | inactive |  |
| Cc1cc(C(=O)CSc2nc(N)cc(N)n2)c(C)n1-c1cccc(C(F)(F)F)c1 | inactive |  |
| Cc1ccc(N2CC(C(=O)Nc3ccc(S(=O)(=O)Nc4nccc(C)n4)cc3)CC2=O)cc1 (configuration not stated) | inactive |  |
